Experimental data as given in patent publication US20230332232A1, “COMPOSITIONS AND METHODS FOR DIAGNOSING AND TREATING A DYSTONIA” (Duke University, priority 2020, published 2023).

Tests used:
[1] = test system: hiPSC-derived neural progenitor cells (NPCs) EVs; experiment: Parallel reaction monitoring (PRM) targeted proteomics of EVs from hiPSC-derived neural progenitor cells; type: cell-based, human
[2] = test system: MEF EVs; experiment: Original untargeted proteomics MEF discovery dataset (average peptide intensity); type: cell-based, mouse; conditions: peptide of the PRM panel; original MEF EV proteomics dataset
[3] = test system: MEF EVs; experiment: Untargeted discovery proteomics of MEF EVs (MEF Discovery Dataset), average peptide intensity; type: cell-based, mouse; conditions: peptide of the PRM panel in the original proteomics dataset
[4] = EVs from human iPSC-derived NPC pool, present/absent

Substance	Detected in NPC Pool ([1]; EVs of hiPSC-derived NPC pool)	Avg. Intensity in MEF Discovery Dataset [2]	Detected in NPC Pool [1, 4]	Avg. Intensity in MEF Discovery Dataset [3]
AETEEGPDVLR	absent	7.94E−05	–	–
AFSYYGPLR	absent	5.70E−06	–	–
AGLSQSLFER	–	–	absent	3.02E−06
AGNLGGGVVTIER	present	3.26E−06	–	–
AILGSVER	present	1.29E−06	–	–
AINFNEGYAK	absent	3.29E−05	–	–
ALLNVVDSAR	absent	2.03E−05	–	–
ANPALYVLR	absent	9.40E−06	–	–
ASLISANSDK	present	9.80E−05	–	–
CPLPGTAAFK	present	1.17E−06	–	–
DGTISEDTIR	present	1.06E−06	–	–
DLSSVQTLLTK	absent	6.03E−05	–	–
DVAYQYVK	absent	1.09E−05	–	–
EAKPDELMDSK	–	–	absent	3.24E−05
ELPDVLER	absent	1.05E−06	–	–
ELPELLQR	present	5.68E−06	–	–
FAAGSVVSFK	absent	3.29E−05	–	–
FAEALITFYSDNSVLHR	absent	2.51E−05	–	–
FASSPLR	absent	5.50E−05	–	–
FIATLQYIVGR	absent	4.28E−05	–	–
GAFQQAAQILR	absent	4.72E−05	–	–
GDSLAYGLR	absent	7.58E−05	–	–
GFAFVYFENVDDAK	present	1.11E−05	–	–
ICLDILK	–	–	present	1.25E−05

Substance	Detected in NPC Pool ([1]; EVs of hiPSC-derived NPC pool)	Avg. Intensity in MEF Discovery Dataset [2]	Detected in NPC Pool [1, 4]	Avg. Intensity in MEF Discovery Dataset [3]
IDLTLLNR	absent	1.15E−06	–	–
IGDFGMITR	present	2.87E−05	–	–
IGDVVGSSGANQQTSGK	absent	9.56E−04	–	–
IISNLFLGR	absent	2.74E−05	–	–
ILPEQGLMLTGSADK	absent	1.55E−05	–	–
IVLSSMEK	absent	2.43E−05	–	–
LADALQELR	absent	7.33E−05	–	–
LALASLGYEK	present	6.77E−06	–	–
LDENSAFLQFNWK	absent	6.23E−05	–	–
LELFLPEEYPMAAPK	–	–	absent	2.00E−05
LITAVVMK	absent	6.26E−05	–	–
LLTSGYLQR	absent	5.68E−05	–	–
LPVPASAPIPFFIR	present	8.71E−05	–	–
LTAELQDTK	absent	1.75E−05	–	–
LTSLLEETLNK	absent	7.77E−04	–	–
NANNGNLLLR	absent	3.61E−05	–	–
NFLSGALTGLTR	present	9.45E−05	–	–
NIQVSHQEFSK	present	6.56E−06	–	–
NLPFTPILASVNR	absent	4.19E−05	–	–
NPVTIFSLATNEMWR	absent	3.90E−04	–	–
NVFLLGFIPAK	–	–	absent	–
NYLSQPSNPSR	absent	1.26E−05	–	–
QDVYDLLK	absent	–	–	–
RPFDPNDRCYECGEK	absent	2.42E−05	–	–

Substance	Detected in NPC Pool ([1]; EVs of hiPSC-derived NPC pool)	Avg. Intensity in MEF Discovery Dataset [2]	Detected in NPC Pool [1, 4]	Avg. Intensity in MEF Discovery Dataset [3]
SGDSEVYQMGDVSQK	absent	1.01E−05	–	–
SLLVTELGSSR	present	3.47E−05	–	–
SPAITATLEGK	–	–	absent	2.78E−05
SPQLEDEAK	absent	1.96E−05	–	–
TAEEVAALIR	absent	9.76E−05	–	–
TMYLEDR	present	4.40E−05	–	–
TNEAQAIETAR	–	–	present	5.41E−05
TNNSNQNFFK	–	–	absent	9.13E−05
VAAALPGMESTQDR	present	2.88E−05	–	–
VAHSDKPGSTSAVSFR	–	–	absent	1.11E−05
VAIVTFSSK	absent	2.97E−05	–	–
VAVGELTDEDVK	absent	5.72E−05	–	–
VAVVNQIAR	absent	7.81E−05	–	–
VELSTGMPR	absent	1.87E−06	–	–
VGRPEWWMDYQK	absent	1.47E−05	–	–
VIPSPFK	absent	2.78E−05	–	–
VLDNAIETEK	absent	7.91E−05	–	–
VNTPITTVYR	present	1.24E−06	–	–
VQAVVAVAR	absent	7.64E−05	–	–
VSFVKPTYR	absent	2.96E−05	–	–
VTFNSALAQK	absent	2.17E−05	–	–
VVFTPSICK	present	2.27E−06	–	–
YGPLADVSIVYDAQSR	absent	5.45E−05	–	–
YQTIEENIK	absent	2.60E−05	–	–
